Consider 1 sequence from paper PMC4414483.

For at least one entry, the source does not settle the construct or the ends of the probe. At least one verdict was read from the data and is not stated in words by the source. Where a protein sequence is shown, tags need not be part of it.

For the data set, the target named is T1, core-SRF (serum response factor core domain) (UniProt P11831).
T1 sequence (looked up): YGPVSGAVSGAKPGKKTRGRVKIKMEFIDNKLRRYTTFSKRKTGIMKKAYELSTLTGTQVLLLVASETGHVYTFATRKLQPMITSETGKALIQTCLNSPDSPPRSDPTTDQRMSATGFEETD
As to the kind of experiment: Raman spectroscopy. The following applies: 2:1 core-SRF:SRE, about 1e-4 M complex, 5 and 15 C, Kd only cited from ref 12; 10 mM Tris-HCl pH 8.5, 0.1 M NaCl, 1 mM DTT, 1 mM EDTA (mixing buffer before concentration); Raman difference spectra 15 C minus 5 C; recombinant protein; residues 124-245.

Consider “GGATGTCCATATTAGGACAT (double strand) [SREfos]”, for which the binding result is “binds”.
